# According to PubChem BioAssay AID485298 (National Center for Advancing Translational Sciences (NCATS), 2010):
# The whole screen tested about 320,000 compounds, of which about 740 (0.23%) were called active. Inconclusive results, whose numbers are uncertain, are shown with a selection of clear calls. The call rests on the fitted dose curve; in most records, active means well fitted activation curve with a large enough effect; inconclusive means small, poorly fitted or top-dose-only effect; inactive means no such curve, though single readings can be large or run the other way. Where the call is inconclusive, the potency comes from a doubtful curve fit.
# Test: qHTS Assay for Small Molecule Inhibitors of Mitochondrial Division or Activators of Mitochondrial Fusion; further: nearly all actives have a fitted effect of over 45% in size
# Settings: S. cerevisiae fusion-defective mutant growth rescue, CellTiterGlo 48 h; series mostly up to 46.1 µM
# In short: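 Read-out: ATP-based luminescence (CellTiterGlo, 10 min ambient) reporting growth of fusion-defective ts yeast after 48 hours at 37C on glycerol/ethanol YPEG medium in the presence of compound.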
# Potency means the concentration at half of the fitted maximal effect.
row,Compound,Potency
1,FC(F)(F)c1cccc(NC(=S)NC2CCCC2)c1,"inconclusive: 31.6 µM [activator, single point]"
2,COC(=O)c1c(/N=C/N(C)C)sc2c1CCN(c1ncc(C(F)(F)F)cc1Cl)C2,active: 10 µM
3,Cc1cc(C)nc(N/N=C/c2cccc([N+](=O)[O-])c2)n1,inactive
4,CCCNC(=O)c1nnsc1S(=O)c1ccc(Cl)cc1 (centres undefined),inactive
5,CC1CC(C)CN(C(=O)CSc2nc(Cc3cccs3)nc3ccccc23)C1 (centres undefined),"inconclusive: 14.1 µM [activator, partial curve]"
6,O=C(Nc1ncc([N+](=O)[O-])s1)c1cccc([N+](=O)[O-])c1,"inconclusive: 11.2 µM [activator, partial curve]"
7,Cc1cc(NC(=O)c2ccccc2)ncc1NC(=O)c1cccs1,inactive
8,N#Cc1cnc2cc(-c3ccccc3)nn2c1N,inactive
9,CCc1cccc(OCC(=O)Nc2ccc(S(=O)(=O)N3CCCC3)cc2)c1,inactive
10,Cc1ccc(C2=Nc3ccccc3N(C(=O)c3ccccc3)C(C)C2)cc1 (centres undefined),active: 20 µM
11,Cn1c(=O)[nH]c(=O)c2c1nc(N1CCCCCC1)n2CCCSc1nc2ccccc2o1,"inconclusive: 15.8 µM [activator, single point]"
12,CCOC(=O)CC(C)(C)/C(C)=N/Nc1ccc([N+](=O)[O-])cc1[N+](=O)[O-],inactive
13,CN(C(=O)CN1CCN(c2ccccc2F)CC1)C1CCCc2ccccc21 (centres undefined),"inconclusive: 17.8 µM [activator, single point]"
14,CCCC(C)c1nc(C(N)=O)c2[nH]c(=O)n(-c3ccc(OC)cc3OC)c2n1 (centres undefined),inactive
15,N#CCCN(C(=O)CSc1ccc2c(c1)OCCO2)c1ccccc1,inactive
16,CCOC(=O)c1c(C)c(C)n(Cc2ccc(OC)c(OC)c2)c1C,"inconclusive: 12.6 µM [activator, single point]"
17,Cc1cc(C(=O)CN2C(=O)NC3(CCCc4sccc43)C2=O)c(C)n1-c1ccccc1 (centres undefined),"inconclusive: 35.5 µM [activator, single point]"
18,O=C(NCc1cccnc1)c1cc(-c2ccccc2)on1,inactive
19,COc1ccc(C(=O)OC(C)C(=O)NC(C)CCc2ccccc2)c(OC)c1 (centres undefined),active: 11.2 µM
20,COc1ccc(/C=C2/C(=O)N(c3ccccc3)N=C2C)cc1Br,inactive
21,COc1ccc(OC)c(Nc2nc(N)nc(CCl)n2)c1,inactive
22,CCN1CCN(c2ccc(NC(=O)c3cccc(F)c3)cc2Cl)CC1,"inconclusive: 31.6 µM [activator, single point]"
23,CC1CCN(C(=O)CSc2nnc3c(n2)[nH]c2ccc(F)cc23)CC1,"inconclusive: 1.58 µM [activator, full curve, poor fit]"
24,O=C(/C=C/c1ccc(Cl)cc1Cl)N(Cc1ccc(Cl)cc1)C1CCS(=O)(=O)C1 (centres undefined),"inconclusive: 11.2 µM [activator, partial curve]"
25,CCN(CC)C(=O)Oc1ccc2cc(Br)ccc2c1,inactive

row,Compound,Potency
1,Oc1[nH]c2ccc(Br)cc2c1N=NC(=S)NCC1CCCO1 (centres undefined),"inconclusive: 5.62 µM [activator, single point]"
2,COc1ccc(OC)c(C(=O)CCCC(=O)c2cc(OC)ccc2OC)c1,"inconclusive: 11.2 µM [activator, partial curve, poor fit]"
3,C[n+]1cc2c3c(ccc2c2ccc4cc5c(cc4c21)OCO5)OCO3,"inconclusive: 0.461 µM [activator, partial curve]"
4,O=C1CC(N2CCC(O)(c3ccc(Br)cc3)CC2)C(=O)N1c1ccc(Cl)cc1 (centres undefined),inactive
5,COc1ccc2sc(-c3ccc(N(C)C)cc3)c(C#CCCO)c2c1,"inconclusive: 12.6 µM [activator, single point]"
6,O=C(Nc1cnc2ccccn2c1=O)c1ccc(Cl)cc1Cl,"inconclusive: 15.8 µM [activator, single point]"
7,CCNc1nc(C)cc(COC)c1C#N,inactive
8,NCCCC[C@@H]1NC(=O)[C@H](CCC(=O)O)NC(=O)c2cc([N+](=O)[O-])cc(I)c2SC[C@@H](C(=O)NCC(N)=O)NC1=O,inactive
9,CC(C)(C)NC(=O)c1cccnc1Sc1ccccc1,"inconclusive: 14.1 µM [activator, partial curve]"
10,O=C1c2ccccc2C(Nc2ccc(F)c(Cl)c2)N1Cc1ccco1 (centres undefined),"inconclusive: 25.1 µM [activator, single point]"
11,O=C(N/N=C/c1ccco1)c1ccccc1OCc1ccccc1Cl,"inconclusive: 28.2 µM [activator, single point]"
12,Cc1c(NS(C)(=O)=O)cccc1-c1nc2cccnc2s1,inactive
13,O=S(=O)(Nc1ccc(-c2nc3ccccc3o2)cc1)c1ccccc1,"inconclusive: 12.6 µM [activator, partial curve]"
14,CC(C)c1ccccc1-n1c(SCc2cc(=O)oc3ccc4ccccc4c23)nnc1-c1cccnc1,"inconclusive: 15.8 µM [activator, partial curve]"
15,COc1cccc(CN(C)C(=O)c2cccc(OCc3ccccc3)c2)c1,"inconclusive: 11.2 µM [activator, partial curve]"
16,N#Cc1ccc(OCC(=O)N2CCN(S(=O)(=O)c3cccs3)CC2)cc1,inactive
17,Clc1cccc(N/N=C/c2ccncc2)c1,"inconclusive: 31.6 µM [activator, single point]"
18,O=C(CC(=O)c1cccc([N+](=O)[O-])c1)Nc1ccccc1Cl,"inconclusive: 35.5 µM [activator, single point]"
19,CCCCN(CCCC)c1ncnc2nc[nH]c12,"inconclusive: 2.51 µM [activator, partial curve]"
20,CCOC(=O)CSc1nnc([C@H](C)NC(=O)OC(C)(C)C)o1,inactive
21,CCOC(=O)c1ccc(NC(=O)c2ccccc2N(C)S(=O)(=O)c2ccccc2)cc1,inactive
22,CCCCc1ccc(C2C3=C(CC(C)(C)CC3=O)NC3=C2C(=O)c2ccccc23)cc1 (centres undefined),inactive
23,CCCCc1nnc(NC(=O)c2oc3ccccc3c2C)s1,"inconclusive: 12.6 µM [activator, single point]"
24,C[C@@]12C(=O)N(Cc3ccc(Cl)cc3)CC(=O)N1[C@H]1c3ccccc3OC[C@@H]1[C@@H]2c1ccccc1,"inconclusive: 28.2 µM [activator, single point]"
25,Cc1ccc(S(=O)(=O)Nc2ccc(SC(F)F)cc2)c(C)c1,"inconclusive: 11.2 µM [activator, partial curve]"

row,Compound,Potency
1,O=C(c1ccc(COc2ccccc2)o1)N1CCN(S(=O)(=O)c2ccccc2Cl)CC1,"inconclusive: 25.1 µM [activator, single point]"
2,NS(=O)(=O)c1ccc(NC(=O)Nc2ccc3c(c2)OCO3)cc1,inactive
3,CCCC(=O)N1CCN(c2ccc(NC(=O)c3cc4ccccc4o3)cc2Cl)CC1,"inconclusive: 15.8 µM [activator, single point]"
4,CC1CC(C)CN(C(=O)C2CCC(CNS(=O)(=O)c3ccccc3)CC2)C1 (centres undefined),"inconclusive: 35.5 µM [activator, partial curve, poor fit]"
5,Nc1c(C(=O)Nc2ccccc2F)sc2nc(-c3cccnc3)ccc12,inactive
6,Cn1c(O)c(N=NC(=O)c2cccc(S(=O)(=O)N3CCCCC3)c2)c2ccccc21,"inconclusive: 20 µM [activator, single point]"
7,COCCN(Cc1cc2cc(C)ccc2n2nnnc12)C(=S)Nc1ccc(C)cc1,"inconclusive: 8.91 µM [activator, partial curve]"
8,COc1cc2nc(SCc3ccc(Cl)cc3Cl)n(Cc3cccs3)c(=N)c2cc1OC,inactive
9,CC(C)CNC(=S)Nc1ccc(Oc2ccccc2)cc1,"inconclusive: 20 µM [activator, single point]"
10,C=C1C[C@@]23CC[C@H]4[C@@](C)(CCC[C@@]4(C)C(=O)O)[C@@H]2CC[C@]1(O)C3,"inconclusive: 20.6 µM [activator, single point]"
11,O=C(/C=C/c1ccccc1)N1c2ccccc2Sc2ccc(C(F)(F)F)cc21,"inconclusive: 12.6 µM [activator, partial curve]"
12,CCN(Cc1ccccc1)c1ccc(/C=N/NC(=S)NC(C)C)cc1,inactive
13,O=C(Nc1nc2c(s1)CCCC2)c1cccc(S(=O)(=O)N2CCCc3ccccc32)c1,"inconclusive: 15.8 µM [activator, single point]"
14,Cc1nc(SCCOc2ccccc2F)[nH]c(=O)c1Cc1ccccc1,"inconclusive: 20 µM [activator, partial curve]"
15,CCOC(=O)NN1C(=O)c2ccccc2NC1c1ccc(OC)cc1OC (centres undefined),"inconclusive: 35.5 µM [activator, single point]"
16,CCOC(=O)c1c(NC(=O)c2cccnc2Cl)sc(C(=O)N(C)C)c1C,"inconclusive: 12.6 µM [activator, partial curve]"
17,NC(=O)c1cc2ccccc2o/c1=N/NC(=O)c1cccs1,inactive
18,O=C(c1cccs1)N(Cc1nc2sc3c(c2c(=O)[nH]1)CCCC3)C1CCCC1,"inconclusive: 20 µM [activator, partial curve]"
19,CCOc1ncccc1C(=O)N1CCN(c2cc(Cl)ccc2C)CC1,inactive
20,O=C(CCc1ccccc1)NNC(=S)NC(=O)c1ccc(Cl)cc1,inactive
21,Cc1ccc(CCNS(=O)(=O)c2cnc[nH]2)cc1,inactive
22,O=C(NCCc1cccs1)C1CC(c2cccc(F)c2)=NO1 (centres undefined),"inconclusive: 0.316 µM [activator, full curve, poor fit]"
23,S=C(Nc1ccc(Nc2ccccc2)cc1)Nc1ccccn1,inactive
24,Cc1cc(-c2n[nH]c(=S)n2/N=C/c2ccc(C)o2)n[nH]1,inactive

# Some values from above:
# In Potency, O=C(c1cccs1)N(Cc1nc2sc3c(c2c(=O)[nH]1)CCCC3)C1CCCC1 is listed with inconclusive: 20 µM [activator, partial curve]
# In Potency, CCOC(=O)NN1C(=O)c2ccccc2NC1c1ccc(OC)cc1OC (centres undefined) is listed with inconclusive: 35.5 µM [activator, single point]
# In Potency, O=C(Nc1nc2c(s1)CCCC2)c1cccc(S(=O)(=O)N2CCCc3ccccc32)c1 is listed with inconclusive: 15.8 µM [activator, single point]
# In Potency, S=C(Nc1ccc(Nc2ccccc2)cc1)Nc1ccccn1 is listed with inactive
# In Potency, Nc1c(C(=O)Nc2ccccc2F)sc2nc(-c3cccnc3)ccc12 is listed with inactive
